From patent publication US20210337847A1, “Mint Flavor Compositions” (The Procter & Gamble Company, priority 2020, published 2021) come the findings set out here.

This data set in a line: Expert sensory testing of racemic menthol versus (−)-menthol in a toothpaste formulation (CREST Cavity) with a standard spearmint flavor. The format is in vivo. The method, then: In separate, unpublished internal experiments, perceptual experiences of racemic menthol are quantified via expert sensory testing. The use of a standard spearmint flavor (minimizing extra menthol contribution) compared racemic menthol to (−)-menthol in a toothpaste formulation (CREST Cavity). There are several sensory observations taken from these experiments. […] These aromatic notes appear during brushing and disappear after 5-10 minutes post expectoration and are more pronounced as concentrations increase.

The mark [1] stands for this setting: toothpaste (CREST Cavity), standard spearmint flavor.

Take `CC1CCC(C(C)C)C(O)C1` (racemic) [Racemic Menthol, racemic menthol]: the “Time after which the aromatic notes disappear post expectoration” value (greater than 5,000 part per million) lay in the range of 5 to 10 min. Moreover, under “greater than 5,000 part per million, notes appear during brushing”, the “Aromatic character at higher concentration” value is “pencil lead, burnt rubber, shoe rubber/leather and motor oil”. In addition, the “Differences versus (−)-menthol in peppery burn, cooling vapors, thermal diffusion and cold” value under setting [1] is “no meaningful differences”.

For the compound `CC1CCC(C(C)C)C(O)C1` (single isomer, unassigned; (-)) [(−)-Menthol, (−)-menthol], the “Perception at equivalent concentration, compared with racemic menthol” value under setting [1] is “colder, more minty, less bitter, less drying and delivers a high overall clean mouth sensation”.
